Results are given in words; binding and its absence hold for the method and conditions named. In cells and extracts the contact can be indirect. Some results given as binding are weak or reduced against the parent protein; the word gives no strength. Tags and fused reporters may be left off the sequences shown.
Target: T1, full-length PDZD7 wild-type, N-terminal strep tag and C-terminal GFP (mouse) (UniProt E9Q9W7)
T1 sequence: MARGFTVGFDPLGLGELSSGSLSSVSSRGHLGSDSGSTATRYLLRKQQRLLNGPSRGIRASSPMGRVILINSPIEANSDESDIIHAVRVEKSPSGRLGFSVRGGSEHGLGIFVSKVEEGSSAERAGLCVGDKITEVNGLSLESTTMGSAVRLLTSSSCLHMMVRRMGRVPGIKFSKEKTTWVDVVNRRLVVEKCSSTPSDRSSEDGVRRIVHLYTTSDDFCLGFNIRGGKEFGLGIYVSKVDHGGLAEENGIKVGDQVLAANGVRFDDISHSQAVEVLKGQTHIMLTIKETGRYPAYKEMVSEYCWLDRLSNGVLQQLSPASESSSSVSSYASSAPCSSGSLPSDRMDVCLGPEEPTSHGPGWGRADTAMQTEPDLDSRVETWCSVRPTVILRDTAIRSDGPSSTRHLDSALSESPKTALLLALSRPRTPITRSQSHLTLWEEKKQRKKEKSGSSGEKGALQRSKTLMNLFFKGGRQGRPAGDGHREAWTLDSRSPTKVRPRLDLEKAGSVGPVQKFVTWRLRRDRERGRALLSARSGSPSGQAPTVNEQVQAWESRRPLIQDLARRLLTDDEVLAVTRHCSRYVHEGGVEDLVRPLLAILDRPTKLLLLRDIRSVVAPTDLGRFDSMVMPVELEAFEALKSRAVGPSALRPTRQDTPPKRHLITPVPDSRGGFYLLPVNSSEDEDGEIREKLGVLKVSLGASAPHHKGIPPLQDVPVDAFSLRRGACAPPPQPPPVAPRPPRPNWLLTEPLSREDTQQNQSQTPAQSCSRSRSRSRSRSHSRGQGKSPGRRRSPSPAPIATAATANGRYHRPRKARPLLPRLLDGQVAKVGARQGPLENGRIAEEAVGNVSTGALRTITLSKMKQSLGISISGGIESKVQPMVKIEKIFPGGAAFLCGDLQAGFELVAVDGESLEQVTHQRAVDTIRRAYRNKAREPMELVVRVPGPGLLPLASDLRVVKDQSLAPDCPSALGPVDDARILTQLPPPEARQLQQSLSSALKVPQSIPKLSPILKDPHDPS
Test: pull-down; lysates of separately transfected HeLa cells mixed; PDZD7-GFP (bait) held on Dynabeads Protein G with coupled anti-GFP antibody, 1 h at 4°C; PBS Tween 0.01%, DDM 0.1%; ADGRV1 β (prey) detected by western blot

- binding: binds
B1: ADGRV1 β subunit (seven transmembrane segments and cytoplasmic domain) (domain or fragment, UniProt Q8VHN7 5884-6298)
chain: SVYAVYAQTDNSSSYNEAFFSAGLICISGLCLAVVSHMFCARHSMFAAKLLTHMMVASLGTQILFLASAYASPHLSEESCSAVAAVAHYLYLCQFSWMLIQSVNFWYVLVVSDEHTERRCLLFCLLSWGLPSFVVILLILILRGIYHRSMPQIYGLIHGDLCFIPNIYAALFTAALVPLMCLVVVFVVFIHAYQLKPQWKGYDDVFRGRTNAAEIPLILYLFALISMTWLWGGLHMAYGHFWMLVLFVIFNSLQGLYVFVVYFILHNQTCCPMKASYTVEMNGHPGPSTAFFTPGSGIPPAGEINKSTQNLINAMEEVPSDWERSSFQQTSQASPDLKTSPQNGASFPSSGGYGPGSLIADEESQEFDDLIFALKTGAGLSVSDNESGQGSQEGGTLTDSQIVELRRIPIADTHL

Source: paper PMC9274004, “Deciphering the Molecular Interaction Between the Adhesion G Protein-Coupled Receptor ADGRV1 and its PDZ-Containing Regulator PDZD7” (Frontiers in Molecular Biosciences, 2022)
